# Results are given in words; binding and its absence hold for the method and conditions named. In cells and extracts the contact can be indirect.
# Biological target: poliovirus VP0 C-terminally fused to EGFP (poliovirus type I Mahoney) (UniProt P03300)
# Assay: co-IP
substance,measurement,value
p62/SQSTM1 (from UniProt Q13501 1-440),binding,no binding

# Source: paper PMC8402707
